PubChem BioAssay AID1053208, Peter MacCallum Cancer Centre | 2014
The whole screen tested about 17,000 reagents; shown is a random part of them. In the full data, 788 (4.7%) were called active. 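Calls rest on z-score classes alone; an extra cut-off of viability at most 70% of control was not applied to them.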 Not all columns of the deposit are shown. Reagent sequences are not shown.

Assay: 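Find knock-downs that sensitise mouse osteosarcoma cells to doxorubicin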 (primary screen)
Cell system: mouse osteosarcoma cells, early-passage culture from an engineered mouse model of fibroblastic bone tumour
Reagents: siRNA pool against mouse genes, 40 nM
Time to read-out: about 120 h (48 h before drug, then 72 h with drug)
Conditions: doxorubicin 100 nM for 72 h, roughly 30-40% inhibitory dose
Read-out: 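Viability read as ATP luminescence after 72 h of 100 nM doxorubicin or none, duplicate wells averaged, scaled to non-targeting siRNA, then expressed as robust z-scores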
Reading the numbers: viability z-score with doxorubicin: higher = more viable cells under doxorubicin; viability z-score without drug: higher = more viable cells with knock-down alone
Rule for the call: 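a pool counts as active when its viability z-score with doxorubicin is -2 or below and its z-score without drug lies between -2 and 2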

With knock-down of Slc7a8, the record shows combined z-score class high cell count with doxorubicin only; viability z-score with doxorubicin 2.7; viability z-score without drug 0.51; inactive. After knock-down of Poll (polymerase (DNA directed), lambda), the record shows combined z-score class no change with or without drug; viability z-score with doxorubicin 0.22; viability z-score without drug 0.51; inactive. After knock-down of Asb18 (ankyrin repeat and SOCS box-containing 18) the results were combined z-score class no change with or without drug; viability z-score with doxorubicin 1.01; viability z-score without drug 0.84; inactive. Utp11 (UTP11 small subunit processome component) showed combined z-score class no change with or without drug; viability z-score with doxorubicin -1.35; viability z-score without drug -0.17; inactive. Against Zfp273 (zinc finger protein 273), the values are combined z-score class no change with or without drug; viability z-score with doxorubicin -1.01; viability z-score without drug -0.84; inactive. Knock-down of Ssc5d (scavenger receptor cysteine rich family, 5 domains) came out at: combined z-score class no change with or without drug; viability z-score with doxorubicin -0.67; viability z-score without drug 0.34; inactive.

For Cyyr1 (cysteine and tyrosine-rich protein 1) the deposit lists combined z-score class no change with or without drug; viability z-score with doxorubicin 0.34; viability z-score without drug -0.51; inactive. Against Cntn3 (contactin 3) the deposit lists combined z-score class no change with or without drug; viability z-score with doxorubicin 0.9; viability z-score without drug 1.18; inactive. After knock-down of Clcnkb (chloride channel, voltage-sensitive Kb), the screen gave combined z-score class no change with or without drug; viability z-score with doxorubicin -0.34; viability z-score without drug -0.51; inactive. Depletion of Col13a1 (collagen, type XIII, alpha 1) resulted in: combined z-score class no change with or without drug; viability z-score with doxorubicin 0.34; viability z-score without drug 1.52; inactive. After knock-down of Efcab12 (EF-hand calcium binding domain 12), the record shows combined z-score class no change with or without drug; viability z-score with doxorubicin 0; viability z-score without drug 1.18; inactive. Depletion of Igf2 (insulin-like growth factor 2) resulted in: combined z-score class no change with or without drug; viability z-score with doxorubicin 0.11; viability z-score without drug 0.17; inactive.

Against Styk1 (serine/threonine/tyrosine kinase 1), the entry reads combined z-score class no change with or without drug; viability z-score with doxorubicin 0.45; viability z-score without drug 1.52; inactive. Nmur2 (neuromedin U receptor 2) showed combined z-score class no change with or without drug; viability z-score with doxorubicin 1.01; viability z-score without drug 0; inactive. With knock-down of Ikbkg (inhibitor of kappaB kinase gamma) the results were combined z-score class no change with or without drug; viability z-score with doxorubicin 1.35; viability z-score without drug 0.51; inactive. Tmem94 (transmembrane protein 94) scored combined z-score class low cell count without drug only; viability z-score with doxorubicin -1.57; viability z-score without drug -3.71; inactive. Tceal8 (transcription elongation factor A (SII)-like 8) showed combined z-score class no change with or without drug; viability z-score with doxorubicin 0.67; viability z-score without drug 0.34; inactive. Traf7 (TNF receptor-associated factor 7) gave combined z-score class low cell count with doxorubicin only; viability z-score with doxorubicin -2.02; viability z-score without drug -0.51; active.

Vps16 (VSP16 CORVET/HOPS core subunit) gave combined z-score class low cell count with doxorubicin only; viability z-score with doxorubicin -2.25; viability z-score without drug -1.01; active. After knock-down of Slc6a5 the results were combined z-score class no change with or without drug; viability z-score with doxorubicin 0.45; viability z-score without drug 1.69; inactive. Sfmbt2 (Scm-like with four mbt domains 2) scored combined z-score class no change with or without drug; viability z-score with doxorubicin -0.9; viability z-score without drug -1.18; inactive. Degs2 (delta 4-desaturase, sphingolipid 2) showed combined z-score class no change with or without drug; viability z-score with doxorubicin -0.79; viability z-score without drug 0.51; inactive. With knock-down of Ercc6l the results were combined z-score class no change with or without drug; viability z-score with doxorubicin -1.8; viability z-score without drug -1.01; inactive. Against Myo9b (myosin IXb), the entry reads combined z-score class high cell count with doxorubicin only; viability z-score with doxorubicin 2.02; viability z-score without drug 1.01; inactive.

Knock-down of Or6x1 (olfactory receptor family 6 subfamily X member 1) gave: combined z-score class no change with or without drug; viability z-score with doxorubicin -0.22; viability z-score without drug -0.84; inactive. With knock-down of Ciao2b (cytosolic iron-sulfur assembly component 2B), the record shows combined z-score class no change with or without drug; viability z-score with doxorubicin -1.12; viability z-score without drug 1.01; inactive. For Greb1 (gene regulated by estrogen in breast cancer protein) the deposit lists combined z-score class no change with or without drug; viability z-score with doxorubicin -0.34; viability z-score without drug -1.18; inactive. Depletion of Rag2 (recombination activating gene 2) gave: combined z-score class no change with or without drug; viability z-score with doxorubicin 0.45; viability z-score without drug -0.17; inactive.

2 of these entries, reformatted.
| gene | combined z-score class | viability z-score with doxorubicin | viability z-score without drug | activity call |
| --- | --- | --- | --- | --- |
| Igf2 (insulin-like growth factor 2) | no change with or without drug | 0.11 | 0.17 | inactive |
| Styk1 (serine/threonine/tyrosine kinase 1) | no change with or without drug | 0.45 | 1.52 | inactive |
